Laboratory results taken from PubChem BioAssay AID328 (DTP/NCI, 2004).
The list is a part of this screen's results and no random one: it gathers tests that were run many times, whatever their T/C, doses with no T/C, and many T/C values between a quarter and a half above the control. Other doses and runs of a compound stand elsewhere. T/C is the treated group as % of the vehicle group. Some entries give survivors of the animals treated and no T/C: the source files T/C as zero there, which appears to mark a toxic dose or a test without result, not a measured value. Some survivor counts are full or nearly so, which does not show that the dose was tolerated: survival well below the control is almost never listed, so the zero probably covers shortened survival too. Survivors were counted at the toxicity check, usually on the fifth day, unless a day is given; later deaths do not show. Schedule codes are those of the source, taken here to give the interval after Q, in days (D) or hours (H), and the number of doses after X. Some entries hold several experiments; the values are given in rising order. Some molecules as drawn cover several salts, stereoisomers or complexes of the source; a dose is that of the sample tested. For survival time, the PubChem record calls one and a half times the control and up active, and a quarter to a half above the control has no call in these data; cut-offs in other NCI protocols can differ. Some T/C values carry the count of animals alive at the toxicity check (mostly the fifth day); where none is given, no animal had died by that day.

Tested on: BDF1 mice, P388 leukemia ip, median survival T/C
Test: NCI In Vivo Anticancer Drug Screen. Data for tumor model P388 Leukemia (intraperitoneal) in B6D2F1 (BDF1) mice
Settings: T/C endpoint: median survival time, higher T/C = longer survival
Method in brief: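 Survival ratio, drug arm over vehicle arm, in mice with a transplanted tumour.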

[1] = dose: 50.0 mg/kg/injection, schedule: Q01DX009 (ip), vehicle: saline
[2] = dose: 100.0 mg/kg/injection, schedule: Q01DX009 (ip), vehicle: saline
[3] = dose: 200.0 mg/kg/injection, schedule: Q04DX003 (ip), vehicle: saline
[4] = dose: 400.0 mg/kg/injection, schedule: Q04DX003 (ip), vehicle: saline
[5] = dose: 100.0 mg/kg/injection, schedule: Q01DX009 (ip), vehicle: saline with Tween-80
[6] = dose: 25.0 mg/kg/injection, schedule: Q01DX009 (ip), vehicle: saline
[7] = dose: 25.0 mg/kg/injection, schedule: Q04DX003 (ip), vehicle: saline
[8] = dose: 400.0 mg/kg/injection, schedule: Q01DX009 (ip), vehicle: Klucel (hydroxypropylcellulose) (HPC)
[9] = dose: 50.0 mg/kg/injection, schedule: Q04DX003 (ip), vehicle: saline
[10] = dose: 100.0 mg/kg/injection, schedule: Q04DX003 (ip), vehicle: saline

Which results are given for `N=C(N)c1nn(C2OC(CO)C(O)C2O)c2ncnc(N)c12` (configuration not stated)?
T/C (dose: 20.0 mg/kg/injection, schedule: Q04DX003 (ip), vehicle: saline): 131 % of control; T/C (dose: 40.0 mg/kg/injection, schedule: Q01DX009 (ip), vehicle: saline, evaluated on day 22): 133 % of control [5 of 6 alive]; T/C (dose: 40.0 mg/kg/injection, schedule: Q01DX009 (ip), vehicle: saline, evaluated on day 30): 125 % of control; T/C (dose: 40.0 mg/kg/injection, schedule: Q04DX003 (ip), vehicle: saline): 127 % of control; survivor count (dose: 60.0 mg/kg/injection, schedule: Q01DX009 (ip), vehicle: saline): 2 of 6; T/C (dose: 80.0 mg/kg/injection, schedule: Q04DX003 (ip), vehicle: saline): 127 % of control

For `CC1(C)N=C(N)N=C(N)N1c1ccc(CCCCc2ccc(S(=O)(=O)F)cc2Cl)c(Cl)c1`, which T/C (dose: 2.2 mg/kg/injection, schedule: Q01DX009 (ip), vehicle: saline with Tween-80) is on record?
The T/C was 126 % of control.

What about the T/C (dose: 3.3 mg/kg/injection, schedule: Q01DX009 (ip), vehicle: saline with Tween-80) of the same molecule?
Its T/C is 142 % of control.

What about the T/C (dose: 300.0 mg/kg/injection, schedule: Q04DX003 (ip), vehicle: saline with Tween-80) of the same molecule?
Its T/C is 145 % of control.

Which results are given for `CC1=C[P+](c2ccccc2)(c2ccccc2)C=C(C)O1`?
survivor count (dose: 50.0 mg/kg/injection, schedule: Q01DX005 (ip), vehicle: saline): 0 of 5; survivor count (dose: 100.0 mg/kg/injection, schedule: Q01DX005 (ip), vehicle: saline): 0 of 5; survivor count (dose: 200.0 mg/kg/injection, schedule: Q01DX005 (ip), vehicle: saline): 0 of 5

How did the survivor count (dose: 200.0 mg/kg/injection, schedule: Q01DX005 (ip), vehicle: saline with Tween-80) turn out when `COC(=O)c1cc(=O)nc(NN=C(C)C)s1` was run?
Its survivor count is 0 of 5.

What does the source list for `CC/C(=C\c1ccccc1)[N+](=O)[O-]`?
survivor count [1]: 4 of 6; T/C [2]: 125 % of control; survivor count [2]: 0 of 6; survivor count (dose: 150.0 mg/kg/injection, schedule: Q01DX009 (ip), vehicle: saline): 0 of 6; survivor count [3]: 6 of 6; survivor count [4]: 0 of 6

How did the survivor count [4] turn out when `CCC(O)Cc1c[nH]c(=O)[nH]c1=O` (configuration not stated) was run?
The survivor count was 0 of 6.

For `[CH3][Ga][CH3].[CH3][Ga][CH3].[CH3][Ga][CH3].[CH3][Ga][CH3].[OH3+].[OH3+].[OH3+].[OH3+]`, which survivor count (dose: 5.0 mg/kg/injection, schedule: Q01DX009 (ip), vehicle: saline with Tween-80) is on record?
Its survivor count is 1 of 6.

What about the survivor count (dose: 10.0 mg/kg/injection, schedule: Q01DX009 (ip), vehicle: saline with Tween-80) of the same molecule?
Its survivor count is 0 of 6.

For `NNc1c(C(N)=O)c2c(N)ncnc2n1C1OC(CO)C(O)C1O` (configuration not stated), which survivor count (dose: 400.0 mg/kg/injection, schedule: Q04DX003 (ip), vehicle: water) is on record?
The survivor count was 2 of 6.

Which results are given for `O=C(Nc1ccccc1F)Nc1ccccc1Cl`?
T/C (dose: 50.0 mg/kg/injection, schedule: Q01DX009 (ip), vehicle: Klucel (hydroxypropylcellulose) (HPC)): 125 % of control; T/C (dose: 100.0 mg/kg/injection, schedule: Q01DX009 (ip), vehicle: Klucel (hydroxypropylcellulose) (HPC)): 137 % of control; T/C (dose: 200.0 mg/kg/injection, schedule: Q01DX009 (ip), vehicle: Klucel (hydroxypropylcellulose) (HPC)): 127 % of control

For `COC(=O)c1cncc(C(=O)OC)c1`, which T/C (dose: 400.0 mg/kg/injection, schedule: Q04DX003 (ip), vehicle: saline with Tween-80) is on record?
Its T/C is 136 % of control.

With `Nc1nc(Cl)c(C=O)c(Cl)n1` as the molecule, how does the T/C [5] read?
The T/C was 148 % of control [5 of 6 alive].

And the survivor count (dose: 200.0 mg/kg/injection, schedule: Q01DX009 (ip), vehicle: saline with Tween-80)?
Its survivor count is 5 of 6.

Which results are given for `Nc1ncn(C2CC(O)C(CO)O2)c(=O)n1` (configuration not stated)?
T/C (dose: 0.05 mg/kg/injection, schedule: Q01DX009 (ip), vehicle: Klucel (hydroxypropylcellulose) (HPC)): 138 % of control; T/C (dose: 0.1 mg/kg/injection, schedule: Q01DX009 (ip), vehicle: Klucel (hydroxypropylcellulose) (HPC)): 138 % of control; T/C (dose: 0.1 mg/kg/injection, schedule: Q01DX009 (ip), vehicle: saline): 137 % of control [5 of 6 alive]; T/C (dose: 0.2 mg/kg/injection, schedule: Q01DX009 (ip), vehicle: saline): 134 % of control [4 of 6 alive]; survivor count (dose: 1.6 mg/kg/injection, schedule: Q01DX009 (ip), vehicle: Klucel (hydroxypropylcellulose) (HPC)): 6 of 6; survivor count (dose: 6.25 mg/kg/injection, schedule: Q01DX009 (ip), vehicle: saline): 6 of 6; survivor count (dose: 12.5 mg/kg/injection, schedule: Q01DX009 (ip), vehicle: saline): 6 of 6; survivor count [6]: 6 of 6; T/C [7]: 140 % of control

How did the T/C (dose: 67.0 mg/kg/injection, schedule: Q04DX003 (ip), vehicle: Klucel (hydroxypropylcellulose) (HPC)) turn out when `Nc1nc(SCc2ccccn2)c2[nH]cnc2n1` was run?
Its T/C is 128 % of control.

What about the T/C (dose: 150.0 mg/kg/injection, schedule: Q04DX003 (ip), vehicle: Klucel (hydroxypropylcellulose) (HPC)) of the same molecule?
Its T/C is 128 % of control.

What about the T/C (dose: 200.0 mg/kg/injection, schedule: Q04DX003 (ip), vehicle: Klucel (hydroxypropylcellulose) (HPC)) of the same molecule?
Its T/C is 145 % of control.

What about the survivor count [8] of the same molecule?
Its survivor count is 6 of 6.

What about the T/C (dose: 400.0 mg/kg/injection, schedule: Q04DX003 (ip), vehicle: Klucel (hydroxypropylcellulose) (HPC)) of the same molecule?
The T/C was 133 % of control.

With `CO[C@H]1CC=C2CCN3CCCc4cc5c(cc4[C@]23C1)OCO5` as the molecule, how does the survivor count (dose: 40.0 mg/kg/injection, schedule: Q01DX009 (ip), vehicle: alcohol) read?
The survivor count was 5 of 6.

And the survivor count (dose: 80.0 mg/kg/injection, schedule: Q01DX009 (ip), vehicle: alcohol)?
The survivor count was 6 of 6.

Which survivor count (dose: 50.0 mg/kg/injection, schedule: Q01DX009 (ip), vehicle: saline with Tween-80) does the source give for `CCOC(=O)C(CNc1ccccc1)C(=O)OCC` here?
The survivor count was 6 of 6.

And the survivor count [5]?
Its survivor count is 6 of 6.

For `CN(C)CCCN1c2ccccc2Sc2ccc(Cl)cc21`, which T/C [6] is on record?
The T/C was 136 % of control.

What about the T/C [7] of the same molecule?
The T/C was 143 % of control.

What about the survivor count [1] of the same molecule?
The survivor count was 4 of 6.

What about the survivor count (dose: 50.0 mg/kg/injection, schedule: Q04DX003 (ip), vehicle: saline with Tween-80) of the same molecule?
Its survivor count is 2 of 6.

What about the survivor count [9] of the same molecule?
Its survivor count is 6 of 6.

What about the survivor count [10] of the same molecule?
Its survivor count is 5 of 6 and 6 of 6.

And the survivor count [3]?
Its survivor count is 0 of 6.

Which survivor count (dose: 50.0 mg/kg/injection, schedule: Q04DX003 (ip), vehicle: Klucel (hydroxypropylcellulose) (HPC)) does the source give for `C#CC(N)=O` here?
The survivor count was 0 of 6.

`Nc1nncs1` was tested. Which T/C (dose: 31.3 mg/kg/injection, schedule: Q01DX010 (ip), vehicle: saline) did it give?
Its T/C is 127 % of control.

What about the T/C [9] of the same molecule?
Its T/C is 136 % of control.

What about the survivor count (dose: 62.5 mg/kg/injection, schedule: Q01DX010 (ip), vehicle: saline) of the same molecule?
Its survivor count is 6 of 6 and 7 of 7.

What about the T/C (dose: 64.8 mg/kg/injection, schedule: Q04DX003 (ip), vehicle: saline) of the same molecule?
Its T/C is 127 % of control.

What about the survivor count (dose: 125.0 mg/kg/injection, schedule: Q01DX010 (ip), vehicle: saline) of the same molecule?
Its survivor count is 6 of 6.

And the survivor count (dose: 250.0 mg/kg/injection, schedule: Q01DX010 (ip), vehicle: saline)?
The survivor count was 6 of 6.

What about the survivor count (dose: 300.0 mg/kg/injection, schedule: Q04DX003 (ip), vehicle: saline) of the same molecule?
The survivor count was 1 of 8.

What about the survivor count (dose: 480.0 mg/kg/injection, schedule: Q04DX003 (ip), vehicle: other) of the same molecule?
The survivor count was 1 of 8.

What about the survivor count (dose: 500.0 mg/kg/injection, schedule: Q01DX010 (ip), vehicle: saline) of the same molecule?
Its survivor count is 4 of 6.

What about the survivor count (dose: 800.0 mg/kg/injection, schedule: Q04DX003 (ip), vehicle: other) of the same molecule?
The survivor count was 0 of 8.

How did the T/C [9] turn out when `Cc1cc2nc3ccc(=[N+](C)C)cc-3sc2cc1N` was run?
The T/C was 127 % of control.

And the survivor count [2]?
Its survivor count is 0 of 6 and 1 of 6.

What about the T/C [10] of the same molecule?
Its T/C is 127 % of control.

And the survivor count (dose: 200.0 mg/kg/injection, schedule: Q01DX009 (ip), vehicle: saline)?
Its survivor count is 0 of 6.

What about the survivor count [3] of the same molecule?
Its survivor count is 2 of 6 and 4 of 6.

`COc1ccccc1NC(=O)CSC(N)=O` was tested. Which T/C [8] did it give?
The T/C was 130 % of control.

What about the survivor count [8] of the same molecule?
The survivor count was 3 of 6 and 6 of 6.
